This is an account of results in patent US20210301026A1 (ULTRAHUMAN TWELVE, published 2021).

Amino acid sequences for entries named in this document (tags omitted). A change or cut given only in a name is not applied to a line headed by its entry. Chains listed by the source or under a name are the forms on record and can include a tag or linker.
UniProt P07333: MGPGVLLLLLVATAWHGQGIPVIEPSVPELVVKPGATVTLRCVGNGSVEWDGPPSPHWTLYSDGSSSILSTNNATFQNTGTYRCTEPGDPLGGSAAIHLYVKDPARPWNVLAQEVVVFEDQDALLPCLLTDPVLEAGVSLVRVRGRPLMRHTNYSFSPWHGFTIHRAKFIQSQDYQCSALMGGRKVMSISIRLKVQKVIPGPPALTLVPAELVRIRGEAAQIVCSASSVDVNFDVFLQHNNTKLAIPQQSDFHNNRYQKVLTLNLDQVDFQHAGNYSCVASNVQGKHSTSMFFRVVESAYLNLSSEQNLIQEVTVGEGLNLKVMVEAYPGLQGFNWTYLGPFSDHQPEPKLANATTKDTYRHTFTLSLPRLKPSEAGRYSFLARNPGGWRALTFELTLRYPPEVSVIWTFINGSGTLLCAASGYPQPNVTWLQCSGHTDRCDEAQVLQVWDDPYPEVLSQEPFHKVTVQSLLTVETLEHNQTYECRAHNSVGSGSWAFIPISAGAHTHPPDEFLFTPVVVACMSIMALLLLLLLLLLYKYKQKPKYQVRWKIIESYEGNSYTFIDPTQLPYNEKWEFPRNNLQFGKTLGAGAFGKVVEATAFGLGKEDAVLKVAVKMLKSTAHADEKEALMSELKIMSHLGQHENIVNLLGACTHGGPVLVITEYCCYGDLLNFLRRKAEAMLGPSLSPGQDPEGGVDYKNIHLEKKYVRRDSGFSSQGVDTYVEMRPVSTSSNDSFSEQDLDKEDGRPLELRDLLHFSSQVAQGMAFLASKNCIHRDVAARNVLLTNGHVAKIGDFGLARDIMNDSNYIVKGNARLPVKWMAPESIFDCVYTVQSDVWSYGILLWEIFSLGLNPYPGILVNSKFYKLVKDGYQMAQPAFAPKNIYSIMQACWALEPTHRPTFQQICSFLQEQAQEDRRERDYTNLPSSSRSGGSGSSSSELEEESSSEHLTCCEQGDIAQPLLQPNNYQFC
rhesus CSF1R, membrane-presented on HEK-293 cells (H9FQ91, form named): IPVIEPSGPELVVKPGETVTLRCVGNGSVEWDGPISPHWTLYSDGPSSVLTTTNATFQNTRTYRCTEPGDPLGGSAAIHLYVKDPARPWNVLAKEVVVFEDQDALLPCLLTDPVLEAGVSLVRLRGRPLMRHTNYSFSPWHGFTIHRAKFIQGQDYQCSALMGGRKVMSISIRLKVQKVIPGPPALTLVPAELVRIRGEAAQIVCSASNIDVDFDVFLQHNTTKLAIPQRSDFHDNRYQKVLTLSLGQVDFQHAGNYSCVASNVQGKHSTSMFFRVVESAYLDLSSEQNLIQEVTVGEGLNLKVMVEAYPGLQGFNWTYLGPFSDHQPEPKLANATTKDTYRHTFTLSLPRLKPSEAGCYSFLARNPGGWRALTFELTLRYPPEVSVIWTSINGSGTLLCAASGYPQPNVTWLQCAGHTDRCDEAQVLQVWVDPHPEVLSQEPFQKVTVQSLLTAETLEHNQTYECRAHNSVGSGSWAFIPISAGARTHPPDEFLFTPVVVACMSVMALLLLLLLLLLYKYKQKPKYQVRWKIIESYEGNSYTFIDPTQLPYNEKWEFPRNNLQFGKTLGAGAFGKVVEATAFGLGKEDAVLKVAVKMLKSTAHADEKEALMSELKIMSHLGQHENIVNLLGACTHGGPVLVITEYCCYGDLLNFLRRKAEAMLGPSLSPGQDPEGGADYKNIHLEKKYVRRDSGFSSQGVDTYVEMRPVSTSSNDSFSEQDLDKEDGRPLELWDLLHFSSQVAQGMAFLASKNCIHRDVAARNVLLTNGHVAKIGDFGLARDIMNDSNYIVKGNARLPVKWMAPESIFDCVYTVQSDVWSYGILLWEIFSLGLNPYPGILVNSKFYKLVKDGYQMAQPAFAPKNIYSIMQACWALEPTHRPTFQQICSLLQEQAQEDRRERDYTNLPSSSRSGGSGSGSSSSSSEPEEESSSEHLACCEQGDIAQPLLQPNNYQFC

No constants are given. Whether binding was seen depends on the method and setting. Some binding calls cover weakened binding; strength is not graded here.

The target of assay [1] is cynomolgus monkey CSF1R human Fc tagged recombinant protein (cynomolgus monkey). In words: direct titration ELISA, IgG4(S228P) on coated CSF1R-Fc.
The target of assay [2] is human CSF1R human Fc tagged recombinant protein (human) (UniProt P07333). The assay is described as above.
The target in assay [3] is cynomolgus monkey CSF1R human Fc tagged recombinant protein (cynomolgus monkey). The assay can be described thus: direct titration ELISA on coated cyno CSF1R-Fc, IgG4(S228P) format, OD 450 nm. (In general: ELISA stands for enzyme-linked immunosorbent assay.)
Assay [4] concerns the target human CSF1R human Fc tagged recombinant protein (human) (UniProt P07333). In words: direct titration ELISA on coated human CSF1R-Fc, IgG4(S228P) format, OD 450 nm.
For assay [5], the target named is rhesus CSF1R, membrane-presented on HEK-293 cells (rhesus monkey) (UniProt H9FQ91). The assay can be described thus: flow cytometry on HEK-293 cells expressing rhesus CSF1R, MFI. For orientation: Flow cytometry measures light scatter and fluorescence of single cells or particles in a stream.
Assay [6] has the same target. In words: flow cytometry, transfected HEK-293 cells.

B1: MH1 (antibody, V domains shown)
VH: QVQLVQSGAEVKKPGSSVKVSCKASGGTFSSYYIIWVRQAPGQGLEWMGDINPYNGTANYAQKFQGRVTITADESTSTAYMELSSLRSEDTAVYYCAREGPYFSNLYVMDYWGQGTLVTVSS
VL: EIVLTQSPATLSLSPGERATLSCRASQSVSYQGENYLAWYQQKPGQAPRLLIYDASNRATGIPARFSGSGSGTDFTLTISSLEPEDFAVYYCQLSNQDLLTFGGGTKVEIK
Turning to B1, the binding result in assay [1], in assay [2], in assay [3] and in assay [4] was “binds” each time.

B2: MH7 (antibody, V domains shown)
VH: QVQLVQSGAEVKKPGSSVKVSCKASGYTFSSYYIIWVRQAPGQGLEWMGDINPYNGTANYAQKFQGRVTITADESTSTAYMELSSLRSEDTAVYYCAREGPYFSNLYVMDYWGQGTLVTVSS
VL: EIVLTQSPATLSLSPGERATLSCRASQSVSYQGENYLAWYQQKPGQAPRLLIYDASNRATGIPARFSGSGSGTDFTLTISSLEPEDFAVYYCQLSNQDLLTFGGGTKVEIK
For B2, the binding result in assay [1], in assay [2], in assay [3] and in assay [4] was “binds” throughout.

B3: MH3 (antibody, V domains shown)
VH: QVQLVQSGAEVKKPGSSVKVSCKASGGTFSSYYIIWVRQAPGQGLEWMGDINPYNGTANYAQKFQGRVTITADESTSTAYMELSSLRSEDTAVYYCAREGPYFSNLYVMDYWGQGTLVTVSS
VL: EIVLTQSPATLSLSPGERATLSCRASQSVSYEGENYLAWYQQKPGQAPRLLIYAASNRATGIPARFSGSGSGTDFTLTISSLEPEDFAVYYCQLSNQDLLTFGGGTKVEIK
For the molecule B3, the binding entry in assay [1], in assay [2], in assay [3] and in assay [4] was “binds” each time.

B4: MH8 (antibody, V domains shown)
VH: QVQLVQSGAEVKKPGSSVKVSCKASGYTFSSYYIIWVRQAPGQGLEWMGDINPYNGTANYAQKFQGRVTITADESTSTAYMELSSLRSEDTAVYYCAREGPYFSNLYVMDYWGQGTLVTVSS
VL: EIVLTQSPATLSLSPGERATLSCRASQSVSYEGENYLNWYQQKPGQAPRLLIYAASNRATGIPARFSGSGSGTDFTLTISSPEPEDFAVYYCQLSNEDLLTFGGGTKVEIK
With B4, the binding result in assay [1], in assay [2], in assay [3] and in assay [4] was “binds” throughout.

B5: MH5 (antibody, human IgG4, V domains shown)
VH: QVQLVQSGAEVKKPGSSVKVSCKASGYTFSSYYMIWVRQAPGQGLEWMGDINPYNGGANYAQKFQGRVTITADESTSTAYMELSSLRSEDTAVYYCAREGPYFSNLYVMDYWGQGTLVTVSS
VL: EIVLTQSPATLSLSPGERATLSCRASQSVSYEGENYLNWYQQKPGQAPRLLIYAASNRATGIPARFSGSGSGTDFTLTISSPEPEDFAVYYCQLSNEDLLTFGGGTKVEIK
notes: Designer (maximally humanized) clone; tested as human IgG4(S228P)/Ckappa IgG; also called mAb-2
For the molecule B5, the binding entry in assay [5] was “binds”.

B6: MH2 (antibody, V domains shown)
VH: QVQLVQSGAEVKKPGSSVKVSCKASGGTFSSYYIIWVRQAPGQGLEWMGDINPYNGTANYAQKFQGRVTITADESTSTAYMELSSLRSEDTAVYYCAREGPYFSNLYVMDYWGQGTLVTVSS
VL: EIVLTQSPATLSLSPGERATLSCRASQSVSYEGENYLNWYQQKPGQAPRLLIYAASNRATGIPARFSGSGSGTDFTLTISSPEPEDFAVYYCQLSNEDLLTFGGGTKVEIK
With B6, the binding entry in assay [1] and in assay [3] was “binds” in each case.

B7: MH6 (antibody, V domains shown)
VH: QVQLVQSGAEVKKPGSSVKVSCKASGYTFSSYYMIWVRQAPGQGLEWMGDINPYNGGANYAQKFQGRVTITADESTSTAYMELSSLRSEDTAVYYCAREGPYFSNLYVMDYWGQGTLVTVSS
VL: EIVLTQSPATLSLSPGERATLSCRASQSVSYEGENYLAWYQQKPGQAPRLLIYAASNRATGIPARFSGSGSGTDFTLTISSLEPEDFAVYYCQLSNQDLLTFGGGTKVEIK
notes: Designer clone, human IgG4(S228P)/Ckappa IgG
B7: the binding result in assay [5], in assay [3] and in assay [4] was “binds” throughout.

B8: 29A03 (antibody, human IgG4, V domains shown)
VH: QVQLVQSGAEVKKPGSSVKVSCKASGYTFSSNYMIWVRQAPGQGLEWMGDINPYNGGATYNQKFQGRVTITADESTSTAYMELSSLRSEDTAVYYCAREPPYFSNLYVMDYWGQGTLVTVSS
VL: EIVLTQSPATLSLSPGERATLSCRASQSVEYEGENYLNWYQQKPGQAPRLLIYAASNRATGIPARFSGSGSGTDFTLTISSLEPEDFAVYYCQLSNQDLLTFGGGTKVEIK
notes: Library-derived clone, tested as human IgG4(S228P)/Ckappa IgG; framework residue limits counted on the grafts
With B8, in assay [5], the binding result was “binds”.

B9: 30D02 (antibody, human IgG4, V domains shown)
VH: QVQLVQSGAEVKKPGSSVKVSCKASGYTFSSYYMIWVRQAPGQGLEWMGDINPYNGGTTYAQKFQGRVTITADESTSTAYMELSSLRSEDTAVYYCAREGPYFSNLYVMDYWGQGTLVTVSS
VL: EIVLTQSPATLSLSPGERATLSCRASQSVEYQGENYLNWYQQKPGQAPRLLIYAASNRATGIPARFSGSGSGTDFTLTISSLEPEDFAVYYCQLSNQDLLTFGGGTKVEIK
notes: as for B8
For the molecule B9, the binding entry in assay [5] was “binds”.

B10: 26B07 (antibody, human IgG4, V domains shown)
VH: QVQLVQSGAEVKKPGSSVKVSCKASGYTFSSYYMIWVRQAPGQGLEWMGDINPYNGGANYAQKFQGRVTITADESTSTAYMELSSLRSEDTAVYYCAREGPYFSNLYVMDYWGQGTLVTVSS
VL: EIVLTQSPATLSLSPGERATLSCRASQSVEYQGDNYLNWYQQKPGQAPRLLIYAASNRATGIPARFSGSGSGTDFTLTISSLEPEDFAVYYCQLSNEDLLTFGGGTKVEIK
notes: as for B8
Turning to B10, the binding entry in assay [5] was “binds”.

B11: MH9 (antibody, V domains shown)
VH: QVQLVQSGAEVKKPGSSVKVSCKASGYTFSSYYIIWVRQAPGQGLEWMGDINPYNGTANYAQKFQGRVTITADESTSTAYMELSSLRSEDTAVYYCAREGPYFSNLYVMDYWGQGTLVTVSS
VL: EIVLTQSPATLSLSPGERATLSCRASQSVSYEGENYLAWYQQKPGQAPRLLIYAASNRATGIPARFSGSGSGTDFTLTISSLEPEDFAVYYCQLSNQDLLTFGGGTKVEIK
notes: as for B7
For the molecule B11, the binding entry in assay [1] and in assay [3] was “binds” throughout.

B12: 29B07 (antibody, human IgG4, V domains shown)
VH: QVQLVQSGAEVKKPGSSVKVSCKASGYTFTSYYIIWVRQAPGQGLEWMGDINPYNGGATYAQKFQGRVTITADESTSTAYMELSSLRSEDTAVYYCAREPPYFSNLYVMDYWGQGTLVTVSS
VL: EIVLTQSPATLSLSPGERATLSCRASQSVEYEGDNYLNWYQQKPGQAPRLLIYAASNRATGIPARFSGSGSGTDFTLTISSLEPEDFAVYYCQLSNQDLLTFGGGTKVEIK
notes: as for B8
With B12, the binding result in assay [5] is reported as “binds”.

B13: 30E06 (antibody, human IgG4, V domains shown)
VH: QVQLVQSGAEVKKPGSSVKVSCKASGYTFTSYYMIWVRQAPGQGLEWMGDINPYNGGTTYAQKFQGRVTITADESTSTAYMELSSLRSEDTAVYYCAREGPYFSNLYVMDYWGQGTLVTVSS
VL: EIVLTQSPATLSLSPGERATLSCRASQSVSYEGENYLAWYQQKPGQAPRLLIYAASNLATGIPARFSGSGSGTDFTLTISSLEPEDFAVYYCQLSNEDLLTFGGGTKVEIK
notes: Library-derived clone; tested as human IgG4(S228P) / human Ckappa IgG; also called 30E6; mAb-3
For B13, the binding result in assay [5] is “binds”.

B14: 29D10 (antibody, human IgG4, V domains shown)
VH: QVQLVQSGAEVKKPGSSVKVSCKASGYTFTSYYMIWVRQAPGQGLEWMGDINPYNGGANFAQKFQGRVTITADESTSTAYMELSSLRSEDTAVYYCAREGPYFSNLYVMDYWGQGTLVTVSS
VL: EIVLTQSPATLSLSPGERATLSCRASQSVSYEGENYLNWYQQKPGQAPRLLIYAASNRATGIPARFSGSGSGTDFTLTISSLEPEDFAVYYCQLSNEDLLTFGGGTKVEIK
notes: as for B8
As to B14, the binding result in assay [5] is “binds”.

B15: 29H09 (antibody, human IgG4, V domains shown)
VH: QVQLVQSGAEVKKPGSSVKVSCKASGYTFTSYYMIWVRQAPGQGLEWMGDINPYNGGANYAQKFQGRVTITADESTSTAYMELSSLRSEDTAVYYCAREGPYFSNLYVMDYWGQGTLVTVSS
VL: EIVLTQSPATLSLSPGERATLSCRASQSVSYEGENYLNWYQQKPGQAPRLLIYAASNRATGIPARFSGSGSGTDFTLTISSLEPEDFAVYYCQLSNEDLLTFGGGTKVEIK
notes: as for B8
With B15, the binding entry in assay [5] was “binds”.

B16: humanized anti-CSF1R antibody 0301 (hu0301) (antibody, human IgG4, V domains shown)
VH: QVQLVQSGAEVKKPGSSVKVSCKASGYTFTDNYMIWVRQAPGQGLEWMGDINPYNGGTTFNQKFKGRVTITADKSTSTAYMELSSLRSEDTAVYYCARESPYFSNLYVMDYWGQGTLVTVSS
VL: EIVLTQSPATLSLSPGERATLSCKASQSVDYDGDNYMNWYQQKPGQAPRLLIYAASNLESGIPARFSGSGSGTDFTLTISSLEPEDFAVYYCHLSNEDLSTFGGGTKVEIK
notes: also called mAb-1
As to B16, the binding entry in assay [6] and in assay [5] was “binds” in each case.

B17: murine anti-CSF1R antibody 0301 (mu0301), v-domains in human IgG4(S228P) format (antibody, V domains shown)
VH: EVQLQQSGPELVRPGASVKMSCKASGYTFTDNYMIWVKQSHGKSLEWIGDINPYNGGTTFNQKFKGKATLTVEKSSSTAYMQLNSLTSEDSAVYYCARESPYFSNLYVMDYWGQGTSVTVSS
VL: NIVLTQSPASLAVSLGQRATISCKASQSVDYDGDNYMNWYQQKPGQPPKLLIYAASNLESGIPARFSGSGSGTDFTLNIHPVEEEDAATYYCHLSNEDLSTFGGGTKLEIK
With B17, the binding result in assay [5] was “binds”.
